The nature of this assay: qHTS Assay for Lipid Storage Modulators in Drosophila S3 Cells.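 For cell number change: cells counted by Cell Tracker Red CMTPX staining in the red channel.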 Conditions: BODIPY lipid droplet fluorescence, 18-24 h; for cell number change: measured here: cell count max response, cells fed with added oleic acid. The method, boiled down: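 Drosophila S3 cells loaded with oleic acid (400 uM, as added) and compounds at several concentrations; lipid droplets imaged by 488-nm laser-scanning cytometry, 500–530 nm intensity and object ratio to cell channel. Percent activity normalized to 20 uM Triacsin C.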
For orientation: Quantitative high-throughput screening tests each substance at several concentrations.

[1] abbreviates: measured here: lipid fluorescence (Fed channel) AC50, cells fed with added oleic acid.
Setting [2] is: measured here: cell number channel AC50, cells fed with added oleic acid.

This is one part of the list. These are further read-outs of the screen, such as a control signal, another cell line or another target. No call is given for them. The list favours compounds with an active or inconclusive main result. Potencies come from curve fits of mixed quality, noted in brackets.

Our source for the cell number change and AC50 values is PubChem BioAssay AID2685 (National Center for Advancing Translational Sciences (NCATS), 2010).

Broadly, the AC50 is the midpoint of the concentration-response curve, whichever way the signal moves. Low readings indicate activity at low concentration, high ones activity only at high concentration.

`S=C(Nc1ccccc1)N(CCN1CCOCC1)Cc1cccc(Cl)c1`: the cell number change is -15.1%. Besides, the AC50 under setting [1] was 18.4 µM [falling, single point].
Turning to `CCOC(=O)[C@H]1[C@H]2COc3ccc(Br)cc3[C@H]2N2C(=O)CNC(=O)[C@@]12C`, the cell number change was -12.7%. Besides, the AC50 under setting [1] was 0.092 µM [falling, single point].
For `COc1ccc(OCc2cc(C(=O)N3C[C@@H](C)O[C@@H](C)C3)no2)c(Cl)c1`, the cell number change was determined as 27.8%. Moreover, the AC50 under setting [1] is 6.51 µM [rising, single point].
Take `CC(=O)Nc1ccccc1-c1ccc(C)o1`: the cell number change is -17.4%. The AC50 under setting [1] was 0.00461 µM [rising, full curve, poor fit].
For `CCS(=O)(=O)C1=NN2C(=N)/C(=C\c3ccc(OS(=O)(=O)c4ccccc4)cc3)C(=O)N=C2S1`, the AC50 under setting [1] is 29.1 µM [falling, single point].
For `O=C(COC(=O)CNC(=O)C1CCCCC1)Nc1ccc2c(c1)OCCO2`, the cell number change was 9.16%. Also, the AC50 under setting [2] was 0.00517 µM [rising, full curve, poor fit].
As to `CC(=O)c1cccc(OCc2cc(C(=O)N(C)C(C)c3ccccn3)no2)c1` (stereo not given), the cell number change is 4.53%. For the same compound, under setting [1], the AC50 is 0.164 µM [rising, full curve, poor fit].
Turning to `COc1ccc(OCC(O)CN(C)C(=O)/C=C/c2cccc([N+](=O)[O-])c2)cc1` (stereo not given), the cell number change was -39.2%. Also, under setting [2], the AC50 was 5.8 µM [falling, partial curve].
`CCOc1ccccc1N1CCN(C(=O)c2csc(C)c2CC)CC1`: the cell number change stood at 61.5%. Further, the AC50 under setting [2] is 0.517 µM [rising, full curve]. Under setting [1], the AC50 was 0.731 µM [rising, full curve].
Regarding `CCOC(=O)N1CCN(C(=O)c2ccc3c(c2)NC(=O)/C(=C/c2ccccc2)S3)CC1`, the cell number change was -31.1%. For the same compound, the AC50 under setting [2] is 18.4 µM [falling, single point].
Regarding `Cc1ccc([C@@H]2CC=C(C(=O)O)[C@H](c3ccccc3)N2S(=O)(=O)c2ccc(C)cc2)cc1`, the cell number change was -7.19%. For the same compound, the AC50 under setting [1] is 0.146 µM [rising, full curve, poor fit].
As to `O=S(=O)(N1CCCCCC1)N1CCN(S(=O)(=O)N2CCCCC2)CC1`, the cell number change is -87.2%. The AC50 under setting [2] was 23.1 µM [falling, single point]. Further, the AC50 under setting [1] is 0.92 µM [falling, partial curve].
On to `O=C(CN1c2ccccc2Sc2ccccc21)N/N=C/c1ccc(Cl)cc1Cl`, for which the cell number change was -0.774%. The AC50 under setting [2] was 0.082 µM [rising, partial curve, poor fit]. The AC50 under setting [1] is 0.0731 µM [rising, partial curve, poor fit].
For `CNC(=O)COc1coc(CN2CCN(c3ccc(F)cc3)CC2)cc1=O`, the cell number change is 12.5%. For the same compound, the AC50 under setting [1] is 29.1 µM [rising, single point].
Consider `COc1cc(NC(=O)CCCC(=O)OCC(F)(F)C(F)F)nc(OC)n1`, for which the cell number change worked out at 18.2%. Also, the AC50 under setting [1] is 4.11 µM [rising, single point].
Consider `Cc1cc(C)c(S(=O)(=O)N2CCN(C(=O)N3CCCCC3)CC2)c(C)c1`, for which the cell number change was -2.1%.
Regarding `O=C(NCC1CCN(c2ccc(S(=O)(=O)N3CCOCC3)cc2)CC1)c1cccc(Cl)c1`, the cell number change is 32.3%. The AC50 under setting [2] is 9.2 µM [rising, single point]. In addition, the AC50 under setting [1] was 3.26 µM [rising, single point].
On to `COCCCNC(=S)Nc1ccc(C)cc1`, for which the cell number change worked out at 4.26%. The AC50 under setting [1] is 0.103 µM [falling, partial curve, poor fit].
For `CC(O)(CS(=O)(=O)Cc1ccccc1Cl)C(=O)Nc1cccc(C(F)(F)F)c1` (stereo not given), the cell number change amounted to 10.1%.
With `CC(C)(C)Nc1cccccc1=O`, the cell number change is -9.98%. Further, the AC50 under setting [1] was 0.206 µM [falling, full curve].
Consider `CN(C)c1nc(N)nc(CSc2nnnn2-c2ccc(C(=O)O)cc2)n1`, for which the cell number change is 11.6%. In addition, the AC50 under setting [1] was 20.6 µM [falling, single point].
Take `Cc1cccc(CN2CCNC2=O)c1`: the cell number change was 0.101%. The AC50 under setting [1] is 6.51 µM [falling, single point].
In the case of `COc1cc(/C=N/NC(=O)C(N)=O)ccc1OC(=O)c1cccs1`, the AC50 under setting [1] was 5.8 µM [rising, partial curve].
For `O=C(NCc1cn2ccccc2n1)c1ccccc1`, the cell number change came out at 25.4%. For the same compound, the AC50 under setting [1] was 6.51 µM [rising, single point].
On to `O=C(CSc1nc(O)cc(=O)n1-c1ccccc1)Nc1ccc(Br)cn1`, for which the cell number change was 11.5%. Also, the concentration at half-maximal activity (AC50) under setting [2] was 6.51 µM [falling, single point]. Also, the AC50 under setting [1] is 2.59 µM [falling, partial curve].
`Oc1ccccc1N1CCN(c2nc(-c3cccs3)nc3ccccc23)CC1`: the cell number change came to 6.85%. Further, the AC50 under setting [1] is 0.00461 µM [rising, full curve, poor fit].
In the case of `COc1cccc(C(=O)Nc2ccc(NC(=O)C3CC3)nc2)c1`, the cell number change worked out at 18.5%. For the same compound, the AC50 under setting [1] is 0.58 µM [falling, single point].
Consider `CCn1cc(C(=O)N2CCN(c3ccccc3)CC2)c(=O)c2cc(S(=O)(=O)N3CCOCC3)ccc21`, for which the cell number change came out at 6.19%. Also, under setting [1], the AC50 was 29.1 µM [rising, single point].
`Cc1nn(C(C)(C)C)c(C)c1/C=N/OC(=O)Nc1ccc(Cl)cc1`: the cell number change is -27%. The AC50 under setting [1] is 10.3 µM [falling, partial curve, poor fit].
`O=C(Nc1cccc(-c2nc3ccccc3[nH]2)c1)c1ccco1`: the cell number change is -5.35%. The AC50 under setting [1] is 1.3 µM [rising, full curve].
As for `Cc1ccc(S(=O)(=O)NCC(=O)OCC(=O)Nc2cccc(S(=O)(=O)NC3=NCCCCC3)c2)cc1C`, the cell number change came out at 13.3%.
Same read-out and setting: under `O=C(NCc1cccnc1)c1ccccc1-c1ccccc1` stands 0.465%.
Consider `Cc1ccc(C(=O)NCCn2cc(SCC(=O)Nc3nnc(C)s3)c3ccccc32)cc1`, for which the cell number change was -23.4%. In addition, the AC50 under setting [1] is 3.26 µM [rising, full curve, poor fit].
Take `Cc1cc2c(cc1C)CSC(c1ccccc1OC(=O)C(C)(C)C)SC2`: the cell number change stood at 120%. Also, under setting [2], the AC50 is 29.1 µM [rising, partial curve, poor fit].
Take `CCOC(=O)/C(C#N)=C/c1ccc(OCC(=O)Nc2ccc(C)c(C)c2)c(OC)c1`: the cell number change came out at 10.5%. The AC50 under setting [1] is 1.84 µM [rising, partial curve].
With `C=CCn1c(C)nnc1SCC(=O)Nc1nc(C)c(C(=O)N(C)C)s1`, the cell number change is 24.6%.
`CCCCOc1ccc(-c2csc(N)n2)cc1[N+](=O)[O-]`: the cell number change was -13.7%. Besides, the AC50 under setting [1] was 29.1 µM [rising, single point].
Turning to `COc1ccc(OC)c(-n2nnnc2SCC(=O)NCc2ccc3c(c2)OCO3)c1`, the cell number change is 28.6%. Under setting [2], the AC50 was 0.651 µM [rising, single point]. Further, the AC50 under setting [1] was 1.46 µM [rising, full curve].
As for `O=C(Nc1cccc(Cl)c1)c1nc[nH]c1C(=O)N1CCc2ccccc2C1`, the cell number change is -53.4%. In addition, under setting [2], the AC50 was 4.11 µM [falling, single point]. Also, the AC50 under setting [1] is 9.2 µM [falling, single point].
Consider `COc1ccc(OC)c(C(=O)N2CCC(CCC(=O)NC3CC3)CC2)c1`, for which the cell number change worked out at 6.27%. Moreover, the AC50 under setting [1] is 6.51 µM [rising, single point].
As for `CCOc1ccc(CN2CCN(CCCn3cccn3)CC2CCO)cc1` (stereo not given), the cell number change is 18.9%. Further, the AC50 under setting [1] is 0.00517 µM [rising, full curve, poor fit].
On to `CCS(=O)(=O)N1CCN(C(=O)c2ccccc2)CC1`, for which the cell number change came out at 40.4%. The AC50 under setting [2] was 16.4 µM [rising, single point].
As for `CC(=O)c1cccc(N(CC(=O)NCCc2ccccc2)C(=O)c2csnn2)c1`, the cell number change was found to be 0.427%.
The same measure, in the same setting: under `CCOc1ccccc1NC(=O)c1ccc(S(=O)(=O)N2CCCCC2)cc1` stands 4.58%.
In the case of `S=c1[nH]nc(C2CCCCC2)n1/N=C/c1ccc(Cl)cc1`, the cell number change is 13.9%. Besides, the AC50 under setting [1] was 6.51 µM [falling, single point].
Regarding `COc1ccc(N2CC(C(=O)NNC(=O)c3ccc(Br)cc3)CC2=O)c(OC)c1` (stereo not given), the cell number change was found to be 0.442%. Besides, the AC50 under setting [2] is 0.651 µM [falling, full curve, poor fit]. In addition, the AC50 under setting [1] is 0.731 µM [falling, full curve].
For `COc1cc2c(cc1OC)C(C(=O)Nc1ccccn1)C(c1cccnc1)N(C)C2=O` (stereo not given), the cell number change is -16.7%. Further, the AC50 under setting [1] is 6.51 µM [falling, single point].
As to `CCOC(=O)c1cc(CC)sc1NC(=O)COC`, the cell number change was -19.5%.
Regarding `O=C(NCCc1ccc(F)cc1)Nc1ccc([N+](=O)[O-])cc1`, under setting [1], the AC50 is 20.6 µM [falling, partial curve].
With `CCOC(=O)C1CCN(S(=O)(=O)c2ccc3c4c(cccc24)C(=O)N3)CC1`, the cell number change stood at 9.92%. Besides, the AC50 under setting [2] is 1.3 µM [falling, partial curve].
On to `COCCN(Cc1ccc(F)cc1)C(=O)c1cc2ccccc2oc1=O`, for which the cell number change stood at 3.86%. Also, the AC50 under setting [1] is 6.51 µM [rising, single point].
With `Cc1oc(-c2ccc(Cl)cc2)nc1CS(=O)CC(=O)NCc1ccccn1` (stereo not given), the cell number change was found to be 6.6%. Moreover, the AC50 under setting [1] is 14.6 µM [rising, partial curve].
As to `CC(C)C[C@@]12C(=O)N(c3cccc(F)c3)C(=O)N1[C@H](c1ccc(F)cc1)[C@@H]1C(=O)N(C3CCCCC3)C(=O)[C@@H]12`, the cell number change was -21.7%. Moreover, the half-maximal activity concentration (AC50) under setting [1] was 29.1 µM [rising, single point].
For the compound `Cc1nc(NC(=O)CSc2nnc(-c3ccccc3)c(-c3ccccc3)n2)c(Cl)cc1Cl`, the cell number change was -37.7%. Further, the AC50 under setting [2] was 14.6 µM [falling, partial curve, poor fit]. Also, the AC50 under setting [1] was 13 µM [falling, partial curve].
For `CC(=O)N1c2ccc(S(=O)(=O)NCC3CCC(C(=O)NC4CCCCC4C)CC3)cc2CC1C` (stereo not given), the cell number change worked out at 0.382%. Moreover, the AC50 under setting [1] was 0.461 µM [falling, single point].
Regarding `COc1ccc(Cl)cc1-c1n[nH]c(=S)n1C1CCCCC1`, the cell number change is 10.1%. Further, the AC50 under setting [1] is 0.517 µM [rising, single point].
With `CCOC(=O)Cc1csc(NC(=O)CCc2ccc(S(=O)(=O)N3CCOCC3)cc2)n1`, the cell number change is -20.7%. Moreover, the AC50 under setting [1] was 6.51 µM [rising, single point].
On to `CC(C)c1ccc(S(=O)(=O)NC2CCCC2)cc1`, for which the cell number change turned out to be 36.2%. Besides, the AC50 under setting [2] is 3.66 µM [rising, full curve, poor fit]. For the same compound, the AC50 under setting [1] is 2.06 µM [rising, partial curve, poor fit].
